PubChem BioAssay AID652272 | Drosophila RNAi Screening Center, 2013
In all, the deposit lists about 21,000 reagents; shown is an unselected part of those that have a named target and a result. Over the whole deposit, 503 (2.4%) got an active call. 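Raw plate light values, not normalised; calls rest on replicate z-scores that were not deposited; hits include reporter decreases as well as increases.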 Unmarked entries are inactive. Names joined by + are all predicted targets of the reagent. Not given: the amount of reagent, the time to read-out.

Assay: 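Finding fly genes that regulate Hedgehog signal transduction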 (primary screen)
System: Drosophila clone 8 (Cl8) cells
Knock-down reagent: long dsRNA against Drosophila genes
Measurement: 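Firefly light from a Hedgehog-responsive ptc promoter reporter and Renilla reference light, both read on a plate reader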
Scale: firefly Hh reporter signal: higher = more ptc reporter light; Renilla reference signal: higher = more Renilla control light
Rule for the call: 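Called a hit if the two-replicate mean z-score lies below -2 or above +3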
Calls: active = hit: reporter lowered or raised; inactive = not a hit

Which result is listed for Dph5 [DRSC16653]?
firefly Hh reporter signal, replicate 1: 1.25e5; firefly Hh reporter signal, replicate 2: 1.03e5; Renilla reference signal, replicate 1: 5124; Renilla reference signal, replicate 2: 4016

With Naus [DRSC06011], what does the deposit list?
firefly Hh reporter signal, replicate 1: 56672; firefly Hh reporter signal, replicate 2: 82362; Renilla reference signal, replicate 1: 3612; Renilla reference signal, replicate 2: 4102

What is on record for Naus [DRSC06469]?
firefly Hh reporter signal, replicate 1: 73079; firefly Hh reporter signal, replicate 2: 40989; Renilla reference signal, replicate 1: 2201; Renilla reference signal, replicate 2: 3521

For trx [DRSC17089], what was measured?
firefly Hh reporter signal, replicate 1: 1.33e5; firefly Hh reporter signal, replicate 2: 95320; Renilla reference signal, replicate 1: 4201; Renilla reference signal, replicate 2: 2922

What is on record for CG6329 [DRSC06976]?
firefly Hh reporter signal, replicate 1: 1.08e5; firefly Hh reporter signal, replicate 2: 1.10e5; Renilla reference signal, replicate 1: 5164; Renilla reference signal, replicate 2: 4322

With CG33791 + CG18170 [DRSC08523], what was measured?
firefly Hh reporter signal, replicate 1: 1.41e5; firefly Hh reporter signal, replicate 2: 60364; Renilla reference signal, replicate 1: 5628; Renilla reference signal, replicate 2: 4408

For CG33791 + CG18170 [DRSC08601], what does the deposit list?
firefly Hh reporter signal, replicate 1: 90220; firefly Hh reporter signal, replicate 2: 31101; Renilla reference signal, replicate 1: 3417; Renilla reference signal, replicate 2: 2641

With superdeath [DRSC14868], what does the deposit list?
firefly Hh reporter signal, replicate 1: 5.02e5; firefly Hh reporter signal, replicate 2: 61939; Renilla reference signal, replicate 1: 2553; Renilla reference signal, replicate 2: 2553

Copied from the list.
Result for trx [DRSC17089] in “Renilla reference signal, replicate 2”: 2922
CG6329 [DRSC06976], Renilla reference signal, replicate 1 = 5164

Additional reagents follow.
With Vha100-5 [DRSC02175], what was measured?
firefly Hh reporter signal, replicate 1: 1.22e5; firefly Hh reporter signal, replicate 2: 48006; Renilla reference signal, replicate 1: 3297; Renilla reference signal, replicate 2: 3764

Which result is listed for Prp16 [DRSC19538]?
firefly Hh reporter signal, replicate 1: 57744; firefly Hh reporter signal, replicate 2: 79217; Renilla reference signal, replicate 1: 1576; Renilla reference signal, replicate 2: 2134

How did the screen score Prp16 [DRSC19542]?
firefly Hh reporter signal, replicate 1: 41392; firefly Hh reporter signal, replicate 2: 1.51e5; Renilla reference signal, replicate 1: 1645; Renilla reference signal, replicate 2: 7672

With CG14752 [DRSC06488], how do the results read?
firefly Hh reporter signal, replicate 1: 1.04e5; firefly Hh reporter signal, replicate 2: 58336; Renilla reference signal, replicate 1: 2811; Renilla reference signal, replicate 2: 5312
